The M2OR odorant receptor database
The entries are a selection whose mix differs from that of the whole data set. The calls were merged from several studies; some rest on single wells. The list shows a part of the results.

Columns and labels:
Settings in all cases: stereoisomer not certain
OR6J1 = tested on: T1, OR6J1
T1 sequence (whole entry): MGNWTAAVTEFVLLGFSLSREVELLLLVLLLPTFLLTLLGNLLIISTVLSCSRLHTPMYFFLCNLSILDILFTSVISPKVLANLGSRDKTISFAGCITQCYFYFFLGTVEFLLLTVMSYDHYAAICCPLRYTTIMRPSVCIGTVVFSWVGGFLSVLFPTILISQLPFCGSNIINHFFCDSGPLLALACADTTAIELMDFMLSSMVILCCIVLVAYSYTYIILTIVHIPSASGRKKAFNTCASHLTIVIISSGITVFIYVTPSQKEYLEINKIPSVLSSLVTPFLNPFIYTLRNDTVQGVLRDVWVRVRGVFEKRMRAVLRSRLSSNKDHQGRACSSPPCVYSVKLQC
In short: (§1)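 Each receptor–molecule pair is labelled responsive or non-responsive (inactive) according to whether the original authors judged the measured signal statistically different from baseline. The data were taken from the main text and supplementary material of published papers and checked for typos and inconsistencies. Assay methods differed by source, with transient luciferase assays in mammalian cell lines being common.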

OR6K2 (Homo sapiens) = target: T2, OR6K2 (Homo sapiens) (UniProt Q8NGY2)
T2 sequence (whole entry): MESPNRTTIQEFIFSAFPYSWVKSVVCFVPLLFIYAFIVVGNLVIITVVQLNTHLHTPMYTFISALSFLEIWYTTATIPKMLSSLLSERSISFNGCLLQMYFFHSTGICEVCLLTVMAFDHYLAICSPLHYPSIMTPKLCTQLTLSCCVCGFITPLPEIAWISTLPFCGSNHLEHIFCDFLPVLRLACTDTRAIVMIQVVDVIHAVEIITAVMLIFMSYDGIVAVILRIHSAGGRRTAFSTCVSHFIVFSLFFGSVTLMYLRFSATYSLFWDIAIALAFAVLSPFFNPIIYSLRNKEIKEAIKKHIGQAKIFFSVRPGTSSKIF
In short: as §1

OR6K3 [1] = tested on: T3, OR6K3
T3 sequence (whole entry): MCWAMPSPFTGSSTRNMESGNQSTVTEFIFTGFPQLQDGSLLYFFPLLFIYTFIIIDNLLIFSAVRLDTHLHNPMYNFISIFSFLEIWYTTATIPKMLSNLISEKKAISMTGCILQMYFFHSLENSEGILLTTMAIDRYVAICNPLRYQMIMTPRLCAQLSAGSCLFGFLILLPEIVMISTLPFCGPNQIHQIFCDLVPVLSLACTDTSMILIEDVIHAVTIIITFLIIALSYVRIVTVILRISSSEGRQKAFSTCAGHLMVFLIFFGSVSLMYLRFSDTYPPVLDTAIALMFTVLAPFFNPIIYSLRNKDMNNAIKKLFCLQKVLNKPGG
In short: as §1

OR6K3 [2] = tested on: T4, OR6K3; remark: listed apart in the source
T4 sequence (whole entry): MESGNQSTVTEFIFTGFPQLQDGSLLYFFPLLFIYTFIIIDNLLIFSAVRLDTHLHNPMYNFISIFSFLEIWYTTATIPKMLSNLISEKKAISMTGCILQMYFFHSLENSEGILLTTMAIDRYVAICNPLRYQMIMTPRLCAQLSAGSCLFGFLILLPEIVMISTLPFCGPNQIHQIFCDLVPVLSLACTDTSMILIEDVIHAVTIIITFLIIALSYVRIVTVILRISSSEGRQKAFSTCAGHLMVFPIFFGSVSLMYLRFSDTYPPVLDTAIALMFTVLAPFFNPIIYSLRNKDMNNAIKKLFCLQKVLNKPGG
In short: as §1

OR6K6 [3] = tested on: T5, OR6K6
T5 sequence (whole entry): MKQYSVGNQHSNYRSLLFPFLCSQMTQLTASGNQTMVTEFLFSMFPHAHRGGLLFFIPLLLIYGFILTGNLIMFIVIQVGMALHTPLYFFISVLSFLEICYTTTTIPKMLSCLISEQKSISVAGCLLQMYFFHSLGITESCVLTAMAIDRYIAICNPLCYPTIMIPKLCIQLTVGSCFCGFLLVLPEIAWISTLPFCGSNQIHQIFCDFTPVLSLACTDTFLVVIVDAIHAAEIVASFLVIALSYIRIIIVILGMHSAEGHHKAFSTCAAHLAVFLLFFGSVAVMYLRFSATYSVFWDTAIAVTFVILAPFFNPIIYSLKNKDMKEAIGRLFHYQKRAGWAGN
In short: as §1

OR6K6 [4] = tested on: T6, OR6K6; remark: listed apart in the source
T6 sequence (whole entry): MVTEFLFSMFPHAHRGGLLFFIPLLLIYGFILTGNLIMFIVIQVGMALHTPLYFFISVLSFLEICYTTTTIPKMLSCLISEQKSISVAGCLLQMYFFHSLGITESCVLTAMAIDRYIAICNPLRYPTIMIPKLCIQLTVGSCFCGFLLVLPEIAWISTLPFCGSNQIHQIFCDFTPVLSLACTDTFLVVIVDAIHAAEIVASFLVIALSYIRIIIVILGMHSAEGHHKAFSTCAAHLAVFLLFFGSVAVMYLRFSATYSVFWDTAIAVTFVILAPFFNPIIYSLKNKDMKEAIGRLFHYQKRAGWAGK
In short: as §1

OR6M1 (Homo sapiens) = target: T7, OR6M1 (Homo sapiens) (UniProt Q8NGM8)
T7 sequence (whole entry): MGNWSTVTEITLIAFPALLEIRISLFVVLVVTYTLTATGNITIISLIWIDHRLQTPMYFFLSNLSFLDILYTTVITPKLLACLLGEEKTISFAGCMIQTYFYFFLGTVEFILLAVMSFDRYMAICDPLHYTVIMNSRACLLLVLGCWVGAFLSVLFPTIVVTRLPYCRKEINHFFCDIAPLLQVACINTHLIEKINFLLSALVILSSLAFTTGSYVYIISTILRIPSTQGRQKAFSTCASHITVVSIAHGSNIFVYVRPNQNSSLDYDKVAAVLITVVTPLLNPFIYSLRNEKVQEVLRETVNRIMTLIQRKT
In short: as §1

OR6N1 = tested on: T8, OR6N1
T8 sequence (whole entry): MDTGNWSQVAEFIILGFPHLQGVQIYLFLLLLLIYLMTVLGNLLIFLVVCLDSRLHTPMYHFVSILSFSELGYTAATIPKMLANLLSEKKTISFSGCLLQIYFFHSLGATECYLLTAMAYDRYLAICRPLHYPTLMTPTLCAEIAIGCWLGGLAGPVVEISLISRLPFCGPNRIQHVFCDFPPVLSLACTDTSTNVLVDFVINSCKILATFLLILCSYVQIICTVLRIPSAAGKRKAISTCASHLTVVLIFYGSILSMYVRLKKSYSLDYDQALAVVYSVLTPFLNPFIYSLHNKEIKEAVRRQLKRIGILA
In short: as §1

OR6N2 (Homo sapiens) = target: T9, OR6N2 (Homo sapiens) (UniProt Q8NGY6)
T9 sequence (whole entry): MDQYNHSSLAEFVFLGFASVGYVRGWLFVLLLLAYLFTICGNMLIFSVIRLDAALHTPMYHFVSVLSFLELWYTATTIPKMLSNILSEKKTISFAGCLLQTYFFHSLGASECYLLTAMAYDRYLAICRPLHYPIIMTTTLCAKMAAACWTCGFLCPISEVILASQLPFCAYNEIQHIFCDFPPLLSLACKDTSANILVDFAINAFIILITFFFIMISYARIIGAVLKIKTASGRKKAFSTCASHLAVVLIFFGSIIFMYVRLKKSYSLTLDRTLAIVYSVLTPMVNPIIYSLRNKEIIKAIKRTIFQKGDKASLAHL
In short: as §1

OR6P1 (Homo sapiens) = target: T10, OR6P1 (Homo sapiens) (UniProt Q8NGX9)
T10 sequence (whole entry): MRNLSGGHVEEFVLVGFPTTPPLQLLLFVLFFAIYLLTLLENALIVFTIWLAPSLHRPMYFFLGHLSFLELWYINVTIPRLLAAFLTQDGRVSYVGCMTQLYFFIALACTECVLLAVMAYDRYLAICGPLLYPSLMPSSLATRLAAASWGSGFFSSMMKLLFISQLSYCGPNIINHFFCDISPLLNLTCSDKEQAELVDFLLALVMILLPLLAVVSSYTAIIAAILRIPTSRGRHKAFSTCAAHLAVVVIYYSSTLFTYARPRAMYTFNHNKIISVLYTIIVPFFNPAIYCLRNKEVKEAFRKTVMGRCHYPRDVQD
In short: as §1

OR6Q1 (Homo sapiens) = target: T11, OR6Q1 (Homo sapiens) (UniProt Q8NGQ2)
T11 sequence (whole entry): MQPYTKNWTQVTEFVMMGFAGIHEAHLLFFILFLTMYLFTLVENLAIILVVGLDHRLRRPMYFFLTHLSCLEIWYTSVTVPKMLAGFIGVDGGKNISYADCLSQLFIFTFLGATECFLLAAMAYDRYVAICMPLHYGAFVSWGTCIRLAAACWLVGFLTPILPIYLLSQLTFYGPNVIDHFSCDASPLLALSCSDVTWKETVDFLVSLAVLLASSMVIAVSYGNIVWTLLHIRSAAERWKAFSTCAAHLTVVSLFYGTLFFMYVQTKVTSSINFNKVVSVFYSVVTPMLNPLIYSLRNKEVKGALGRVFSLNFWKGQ
In short: as §1

OR6S1 = tested on: T12, OR6S1
T12 sequence (whole entry): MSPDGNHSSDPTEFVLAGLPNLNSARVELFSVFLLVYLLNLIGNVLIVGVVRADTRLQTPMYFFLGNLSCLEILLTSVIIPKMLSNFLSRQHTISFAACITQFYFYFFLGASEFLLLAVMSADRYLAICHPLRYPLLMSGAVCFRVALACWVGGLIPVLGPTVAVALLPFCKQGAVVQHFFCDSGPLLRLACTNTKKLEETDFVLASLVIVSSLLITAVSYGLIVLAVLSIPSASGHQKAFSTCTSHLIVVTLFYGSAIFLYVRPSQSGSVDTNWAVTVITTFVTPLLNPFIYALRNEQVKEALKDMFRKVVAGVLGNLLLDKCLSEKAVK
In short: as §1

OR6T1 = tested on: T13, OR6T1
T13 sequence (whole entry): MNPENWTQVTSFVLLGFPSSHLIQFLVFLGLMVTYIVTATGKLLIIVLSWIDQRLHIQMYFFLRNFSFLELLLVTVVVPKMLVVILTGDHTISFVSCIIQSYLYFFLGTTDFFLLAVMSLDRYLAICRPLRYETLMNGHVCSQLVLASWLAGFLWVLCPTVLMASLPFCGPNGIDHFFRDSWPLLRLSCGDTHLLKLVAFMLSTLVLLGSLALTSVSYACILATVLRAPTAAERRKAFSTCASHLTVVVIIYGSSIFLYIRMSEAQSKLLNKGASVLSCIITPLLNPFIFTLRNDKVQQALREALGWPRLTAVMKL
In short: as §1
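Note: active if original authors judged signal statistically different from baseline.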

Row | SMILES | odorant receptor agonist call (OR6J1) | odorant receptor agonist call (OR6K2 (Homo sapiens)) | odorant receptor agonist call (OR6K3 [1]) | odorant receptor agonist call (OR6K3 [2]) | odorant receptor agonist call (OR6K6 [3]) | odorant receptor agonist call (OR6K6 [4]) | odorant receptor agonist call (OR6M1 (Homo sapiens)) | odorant receptor agonist call (OR6N1) | odorant receptor agonist call (OR6N2 (Homo sapiens)) | odorant receptor agonist call (OR6P1 (Homo sapiens)) | odorant receptor agonist call (OR6Q1 (Homo sapiens)) | odorant receptor agonist call (OR6S1) | odorant receptor agonist call (OR6T1)
1 | C=CCc1ccc(OC(C)=O)c(OC)c1 | active | inactive | inactive | inactive | inactive | inactive | inactive | inactive | inactive | inactive | inactive | inactive | active
2 | CC(C)C(=O)O | inactive | inactive | inactive | inactive | inactive | inactive | inactive | inactive | inactive | inactive | inactive | inactive | inactive
3 | CC=Cc1ccc(O)c(OC)c1 | active | inactive | inactive | inactive | inactive | inactive | active | inactive | inactive | inactive | inactive | inactive | inactive
4 | CCC=CCCO | inactive | inactive | inactive | inactive | inactive | inactive | inactive | inactive | inactive | inactive | inactive | inactive | inactive
5 | CCCCCCOC(=O)CCC | inactive | inactive | inactive | inactive | inactive | inactive | inactive | inactive | inactive | inactive | inactive | inactive | inactive
6 | CCCCCCCC=CC=O | active | inactive | inactive | inactive | inactive | inactive | inactive | active | active | active | inactive | inactive | inactive
7 | CC(C)(O)CCCC1=CCC(C=O)CC1 (stereo not drawn) | inactive |  |  |  |  |  |  |  |  | inactive |  |  | 
8 | CC(C)=CCCC(C)=CC=O | inactive | inactive | inactive | inactive | inactive | inactive | inactive | inactive | inactive | inactive | inactive | inactive | inactive
9 | c1ccc(Oc2ccccc2)cc1 | inactive | inactive | inactive | inactive | inactive | inactive | inactive | inactive | inactive | inactive | inactive | inactive | inactive
10 | CC(=O)C(C)=O | inactive | inactive | inactive | inactive | inactive | inactive | inactive | inactive | inactive | inactive | inactive | inactive | inactive
11 | COc1ccccc1O | inactive | active | inactive | inactive | inactive | inactive | inactive | inactive | inactive | inactive | inactive | inactive | inactive
12 | O=C1CCCCCCCCCCCCCCO1 | inactive | inactive | inactive | inactive | inactive | inactive | inactive | inactive | inactive | inactive | inactive | inactive | inactive
13 | O=C1CCCCCCCCCCCC(=O)OCCO1 | inactive | inactive | inactive | inactive | inactive | inactive | inactive | inactive | inactive | inactive | inactive | inactive | inactive

Two of the compounds above, as comma-separated lines:
Row,SMILES,odorant receptor agonist call (OR6J1),odorant receptor agonist call (OR6K2 (Homo sapiens)),odorant receptor agonist call (OR6K3 [1]),odorant receptor agonist call (OR6K3 [2]),odorant receptor agonist call (OR6K6 [3]),odorant receptor agonist call (OR6K6 [4]),odorant receptor agonist call (OR6M1 (Homo sapiens)),odorant receptor agonist call (OR6N1),odorant receptor agonist call (OR6N2 (Homo sapiens)),odorant receptor agonist call (OR6P1 (Homo sapiens)),odorant receptor agonist call (OR6Q1 (Homo sapiens)),odorant receptor agonist call (OR6S1),odorant receptor agonist call (OR6T1)
3,CC=Cc1ccc(O)c(OC)c1,active,inactive,inactive,inactive,inactive,inactive,active,inactive,inactive,inactive,inactive,inactive,inactive
4,CCC=CCCO,inactive,inactive,inactive,inactive,inactive,inactive,inactive,inactive,inactive,inactive,inactive,inactive,inactive
